This is one part of the list.

Amino acid sequences for entries named in this document (tags omitted).
UniProt Q0JBA9, entry or part of it: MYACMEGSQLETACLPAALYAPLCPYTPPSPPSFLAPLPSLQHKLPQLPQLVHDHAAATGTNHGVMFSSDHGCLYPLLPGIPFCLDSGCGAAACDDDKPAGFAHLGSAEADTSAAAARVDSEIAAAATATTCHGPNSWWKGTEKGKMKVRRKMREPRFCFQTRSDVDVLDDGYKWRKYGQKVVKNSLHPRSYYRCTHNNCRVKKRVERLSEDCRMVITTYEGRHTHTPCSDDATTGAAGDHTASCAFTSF

This assay has as its target OsWRKY34 (Oryza sativa, UniProt Q0JBA9 1-250). Put plainly: protein-binding microarray (RPBM); PBS, 2% BSA, 51.3 ng/ul salmon testes DNA, 50 uM zinc acetate, 200 nM TF, 25 C, 1 h; high values mean tight binding. As to conditions: protein: recombinant; tags: N-terminal polyhistidine and DsRed monomer fusion (pET32a); label: CyDye5-dUTP incorporated in the synthesized complementary strand; 3' TTTTT single-stranded linker to array surface; dsDNA, one strand shown. An outline of the steps:
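The binding signal for each feature is its fluorescence intensity in arbitrary units. An Axon 4000B scanner was used to read a custom Agilent array that had been made double-stranded with Cy5-dUTP primer extension, blocked with 2% BSA, incubated at 25 °C for 1 h with 200 nM protein in PBS, 2% BSA, salmon testes DNA and 50 µM zinc acetate, and washed. The protein was an N-terminal polyhistidine–DsRed transcription factor fusion from E. coli BL21-CodonPlus, purified on Ni–NTA.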
As to “CCTAACCGCAAAACACCGGATGTAGCGCATCCTTCATCTTCGGAGTCACCTAGTGCAG”, the binding signal was 8670 fluorescence intensity (a.u.).

On to “TGATATCTACACCCACTCGTCTCGCGCCTATATGAGCCGGCGGAGTCACCTAGTGCAG”, for which the binding signal is 9360 fluorescence intensity (a.u.).

In the case of “CACACCACATCACACCGCACACCACACCGATCCCGACCAACGGAGTCACCTAGTGCAG”, the binding signal is 9320 fluorescence intensity (a.u.).

Take “TAGTTTGCATCGACCATTATTCCATTTTCTGTTTTGATCTCGGAGTCACCTAGTGCAG”: the binding signal was 10600 fluorescence intensity (a.u.).

Turning to “GGGCCTTTTTCATCAAAATATTTTTTTCTCGGACCGTTTTCGGAGTCACCTAGTGCAG”, the binding signal was 8180 fluorescence intensity (a.u.).

As for “CCTCCATCTCCTCTCCTCCGATGCTTCACCTCGTCGCCCTCGGAGTCACCTAGTGCAG”, the binding signal is 8660 fluorescence intensity (a.u.).

In the case of “GACACCCTGGTTTCCGTGCCCAATATTTAACCGTTCGTTTCGGAGTCACCTAGTGCAG”, the binding signal was 8080 fluorescence intensity (a.u.).

As for “GCTTCGCTTTGCGCTCTCTCTATCTCTCTCTCTTCCAAAACGGAGTCACCTAGTGCAG”, the binding signal was 8490 fluorescence intensity (a.u.).

With “CATCACACGCAAAATCATCTTTCTTTATCATGATTCACACCGGAGTCACCTAGTGCAG”, the binding signal was 11000 fluorescence intensity (a.u.).

Turning to “AGCGGCGTATTTCTTCTCGTCTTTCTCCCATCCGCTGCCTCGGAGTCACCTAGTGCAG”, the binding signal is 11200 fluorescence intensity (a.u.).

For “GCGGCGGGGTCGATGTGTGACGGCGGCGGCGGGGTCGATGCGGAGTCACCTAGTGCAG”, the binding signal is 11800 fluorescence intensity (a.u.).

With “GCTATATATTCCTCCTCGTCGTCGCCATGGCACCTTCACTCGGAGTCACCTAGTGCAG”, the binding signal was 10200 fluorescence intensity (a.u.).

As for “GCGATATTGACCGAGTCTTTGTTCCACGTGGCGTTGACGTCGGAGTCACCTAGTGCAG”, the binding signal was 10200 fluorescence intensity (a.u.).

As for “TAGCTTTGGAGGAGGAGGAGGAGGAGGGGCGCGAGCCATGCGGAGTCACCTAGTGCAG”, the binding signal was 10800 fluorescence intensity (a.u.).

In the case of “CCCCAGCGAAAAATTTTCGCGCTCACGCACGCACACACGCCGGAGTCACCTAGTGCAG”, the binding signal was 9430 fluorescence intensity (a.u.).

As for “TGCCCACCAACCTCTCTTTCTCTTTTCTCTCTCGGTCTCGCGGAGTCACCTAGTGCAG”, the binding signal was 8200 fluorescence intensity (a.u.).

For the sequence “TCCCTAAATATATGACGTTGTTGACTTTTTAAAACATTTTCGGAGTCACCTAGTGCAG”, the binding signal is 11200 fluorescence intensity (a.u.).

Regarding “TATTTATGGACTTCCGATGGGTTTGGTTGGCTGTTCTGCTCGGAGTCACCTAGTGCAG”, the binding signal is 15000 fluorescence intensity (a.u.).

For the sequence “GCCTCTCCATCTTCGTGGCCGACCGCCGCGTCGCGCACGCCGGAGTCACCTAGTGCAG”, the binding signal was 11600 fluorescence intensity (a.u.).

On to “ATATACAGTACACGTTCTTGCCCTCATTGCCACATAGTACCGGAGTCACCTAGTGCAG”, for which the binding signal is 11900 fluorescence intensity (a.u.).

As to “CTCACCTCGGCCCCACCCATACTACCCACTCATTGCCACGCGGAGTCACCTAGTGCAG”, the binding signal was 8970 fluorescence intensity (a.u.).

Regarding “GAACGGTCAAACATGTTTAAAAAAGTCAATGACGTCAGATCGGAGTCACCTAGTGCAG”, the binding signal was 8730 fluorescence intensity (a.u.).

In the case of “TTGTAATGGTTGTCCTGCCCTCACATACCTTGAAAAAACACGGAGTCACCTAGTGCAG”, the binding signal was 9340 fluorescence intensity (a.u.).

For the sequence “TCCACCTCCCTGATGGGGCGGAGGTAGAGTATGGAAGGGGCGGAGTCACCTAGTGCAG”, the binding signal is 8260 fluorescence intensity (a.u.).

In the case of “GCGCTTCAGGTATGCTTTTTCTATGTGCAAACATATCTTACGGAGTCACCTAGTGCAG”, the binding signal is 8380 fluorescence intensity (a.u.).

Consider “GCAATTTTTTACGCCCACACGACTGTCCGAGAGCAATATGCGGAGTCACCTAGTGCAG”, for which the binding signal is 8170 fluorescence intensity (a.u.).

Consider “AGCACTCCTCCATCGCCTCCTCTAAGATCGCATTCTCAACCGGAGTCACCTAGTGCAG”, for which the binding signal was 11300 fluorescence intensity (a.u.).

Regarding “GATGTTCGTTCAATTCCAGTTCCAGCGGTCCAGCCATTCCCGGAGTCACCTAGTGCAG”, the binding signal is 10100 fluorescence intensity (a.u.).

On to “TCCCTTGTAGTATATTGTTCAGCCTTGACTTTAAAACCACCGGAGTCACCTAGTGCAG”, for which the binding signal is 8820 fluorescence intensity (a.u.).

For “TCAGTCATCGTAAATTATTGTGATTTTTTAGGGAGGGGTGCGGAGTCACCTAGTGCAG”, the binding signal was 9130 fluorescence intensity (a.u.).

On to “ATATGTTTTTCCTGTGTTTTGATTTCCTCTGTTTTACACTCGGAGTCACCTAGTGCAG”, for which the binding signal was 9710 fluorescence intensity (a.u.).

For the sequence “CACATCCGGCACCTGCCATAGTCGACATGTAAATAAAATACGGAGTCACCTAGTGCAG”, the binding signal was 8490 fluorescence intensity (a.u.).

For the sequence “ATAAGTGCAGCCGTGGATATCCGTGCCCAACGTTTGACCGCGGAGTCACCTAGTGCAG”, the binding signal is 9080 fluorescence intensity (a.u.).

Regarding “GCTCACTGCCTAACGGCCTCATCTACAACTGGTGCTACCGCGGAGTCACCTAGTGCAG”, the binding signal was 8900 fluorescence intensity (a.u.).

For the sequence “CTTTGTCAGATGGTCCTGGGTGTTGCTTCATATATTTGACCGGAGTCACCTAGTGCAG”, the binding signal is 9330 fluorescence intensity (a.u.).

Consider “CATCTGGTGACTTACTAATCTACTGTGTTCCTTTTCCAGGCGGAGTCACCTAGTGCAG”, for which the binding signal is 10300 fluorescence intensity (a.u.).

In the case of “CACCGCATCACCTTGTCCACCTCGTCGTCCTCGTCCTCGTCGGAGTCACCTAGTGCAG”, the binding signal is 15800 fluorescence intensity (a.u.).

As to “AATACTCATCTCCGGAATGCTCACACGGCTAGTCATTTCTCGGAGTCACCTAGTGCAG”, the binding signal is 8330 fluorescence intensity (a.u.).

On to “GTCCCAGATGCGCGCGTGTCGCTCCTCATCCTCTCCCGCACGGAGTCACCTAGTGCAG”, for which the binding signal was 8380 fluorescence intensity (a.u.).

“GCCTCGTCGTCTTCCAGCCGGGTTGTGCGGGGCCCCGCTCCGGAGTCACCTAGTGCAG”: the binding signal was 11800 fluorescence intensity (a.u.).

As to “TATCGTATGTACTCTTCATTCTCTACTCCTGCCCGGAAACCGGAGTCACCTAGTGCAG”, the binding signal was 12000 fluorescence intensity (a.u.).

For “CTCTTCGAGGACACCAACCTCTGCGCCATCCACGCCAAGCCGGAGTCACCTAGTGCAG”, the binding signal is 10400 fluorescence intensity (a.u.).

The values above are taken from paper PMC7819943, “Rice protein-binding microarrays: a tool to detect cis-acting elements near promoter regions in rice”.
